Data reported in US7157457B2, “Compounds useful in the treatment of inflammatory diseases” (Glaxo Group Limited, priority 2000, dated 2007).
Some results were stated once for a whole list of compounds, not compound by compound.

biological target: T1, CCR-3 (Homo sapiens, UniProt P51677); test: CCR-3 competition binding SPA ([125I]eotaxin); parameters: expressed in transfected cells; conditions: inhibition of [125I]eotaxin binding to membranes of K562 cells stably expressing CCR-3; mean of at least two experiments
T1 sequence (P51677 1-355): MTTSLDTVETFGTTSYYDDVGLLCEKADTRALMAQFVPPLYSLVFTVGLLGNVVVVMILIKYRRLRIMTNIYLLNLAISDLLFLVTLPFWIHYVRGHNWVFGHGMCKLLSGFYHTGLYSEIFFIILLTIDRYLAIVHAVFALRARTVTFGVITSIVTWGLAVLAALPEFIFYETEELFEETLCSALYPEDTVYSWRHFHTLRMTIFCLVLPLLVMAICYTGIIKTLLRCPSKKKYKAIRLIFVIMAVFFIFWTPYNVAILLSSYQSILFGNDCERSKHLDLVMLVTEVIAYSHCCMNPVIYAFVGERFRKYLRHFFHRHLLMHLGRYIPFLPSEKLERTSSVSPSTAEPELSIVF

CCR-3 Binding Assay (pIC50), greater than 5.0:
Cc1csc(CNC(=O)NC[C@H]2CN(Cc3ccc(Cl)c(Cl)c3)CCO2)n1 [Example 140, N-{[(2S)-4-(3,4-dichlorobenzyl)morpholin-2-yl]methyl}-N′-[(4-methyl-1,3-thiazol-2-yl)methyl]urea]
O=C(NCC1CN(Cc2ccc(Cl)c(Cl)c2)CCO1)N1CCN(c2cccc(F)c2)CC1 (centres unmarked) [Example 157, N-{[4-(3,4-dichlorobenzyl)morpholin-2-yl]methyl}-4-(3-fluorophenyl)piperazine-1-carboxamide]
O=C(NC[C@H]1CN(Cc2ccc(Cl)c(Cl)c2)CCO1)NOc1ccccc1 [Example 180, N-{[(2S)-4-(3,4-dichlorobenzyl)morpholin-2-yl]methyl}-N′-phenoxyurea]
N#Cc1ccc(CNC(=O)NCC2CN(Cc3ccc(Cl)c(Cl)c3)CCO2)cc1 (centres unmarked) [Example 98, N-(4-cyanobenzyl)-N′-{[4-(3,4-dichlorobenzyl)morpholin-2-yl]methyl}urea]
O=C(NCc1ccc(F)cc1)NCC1CN(Cc2ccc(Cl)c(Cl)c2)CCO1 (centres unmarked) [Example 87, N-{[4-(3,4-dichlorobenzyl)morpholin-2-yl]methyl}-N′-(4-fluorobenzyl)urea]
CS(=O)(=O)N1CCC(NC(=O)NCC2CN(Cc3ccc(Cl)c(Cl)c3)CCO2)CC1 (centres unmarked) [Example 160, N-{[4-(3,4-dichlorobenzyl)morpholin-2-yl]methyl}-N′-[1-(methylsulfonyl)piperidin-4-yl]urea]
CCNC(=O)c1cccc(CNC(=O)NCC2CN(Cc3ccc(Cl)c(Cl)c3)CCO2)c1 (centres unmarked) [Example 129, 3-({[({[4-(3,4-dichlorobenzyl)morpholin-2-yl]methyl}amino)carbonyl]amino}methyl)-N-ethylbenzamide]
COC(=O)c1ccc(CNC(=O)NCC2CN(Cc3ccc(Cl)c(Cl)c3)CCO2)cc1 (centres unmarked) [Example 105, methyl 4-({[({[4-(3,4-dichlorobenzyl)morpholin-2-yl]methyl}amino)carbonyl]amino}methyl)benzoate]
C=CCCNC(=O)NCC1CN(Cc2ccc(Cl)c(Cl)c2)CCO1 (centres unmarked) [Example 102, N-but-3-enyl-N′-{[4-(3,4-dichlorobenzyl)morpholin-2-yl]methyl}urea]
NC(=O)CCCNC(=O)NCC1CN(Cc2ccc(Cl)c(Cl)c2)CCO1 (centres unmarked) [Example 166, 4-{[({[4-(3,4-dichlorobenzyl)morpholin-2-yl]methyl}amino)carbonyl]amino}butanamide]
C#CCNC(=O)NC[C@H]1CN(Cc2ccc(Cl)s2)CCO1 [Example 126, N-({(2S)-4-[(5-chlorothien-2-yl)methyl]morpholin-2-yl}methyl)-N′-prop-2-ynylurea]
CCNC(=O)c1ccc(CNC(=O)NCC2CN(Cc3ccc(Cl)c(Cl)c3)CCO2)cc1 (centres unmarked) [Example 133, 4-({[({[4-(3,4-dichlorobenzyl)morpholin-2-yl]methyl}amino)carbonyl]amino}methyl)-N-ethylbenzamide]
O=C(NCc1ccc(C(=O)O)cc1)NCC1CN(Cc2ccc(Cl)c(Cl)c2)CCO1 (centres unmarked) [Example 123, 4-({[({[4-(3,4-Dichlorobenzyl)morpholin-2-yl]methyl}amino)carbonyl]amino}methyl)benzoic Acid Compound with N,N,N-triethylamine (1:1)]
CCCNC(=O)NCC1CN(Cc2ccc(Cl)c(Cl)c2)CCO1 (centres unmarked) [Example 96, N-{[4-(3,4-dichlorobenzyl)morpholin-2-yl]methyl}-N′-propylurea]
CNC(=O)c1ccc(CNC(=O)NCC2CN(Cc3ccc(Cl)c(Cl)c3)CCO2)cc1 (centres unmarked) [Example 131, 4-({[({[4-(3,4-Dichlorobenzyl)morpholin-2-yl]methyl}amino)carbonyl]amino}methyl)-N-methylbenzamide]
O=C(NCC1CN(Cc2ccc(Cl)c(Cl)c2)CCO1)NC1CCS(=O)(=O)C1 (centres unmarked) [Example 170, N-{[4-(3,4-dichlorobenzyl)morpholin-2-yl]methyl}-N′-(1,1-dioxidotetrahydrothien-3-yl)urea]
O=C(O)/C=C/CNC(=O)NCC1CN(Cc2ccc(Cl)c(Cl)c2)CCO1 (centres unmarked) [Example 167, (2E)-4-{[({[4-(3,4-dichlorobenzyl)morpholin-2-yl]methyl}amino)carbonyl]amino}but-2-enoic acid compound with N,N,N-triethylamine (1:1)]
NS(=O)(=O)c1ccc(CCNC(=O)NC[C@H]2CN(Cc3ccc(Cl)c(Cl)c3)CCO2)cc1 [Example 137, 4-(2-{[({[(2S)-4-(3,4-dichlorobenzyl)morpholin-2-yl]methyl}amino)carbonyl]amino}ethyl)benzenesulfonamide]
O=C(NCc1cccc(C(=O)NC2CC2)c1)NCC1CN(Cc2ccc(Cl)c(Cl)c2)CCO1 (centres unmarked) [Example 130, N-cyclopropyl-3-({[({[4-(3,4-dichlorobenzyl)morpholin-2-yl]methyl}amino)carbonyl]amino}methyl)benzamide]
O=C(NCc1ccc(F)cc1F)NCC1CN(Cc2ccc(Cl)c(Cl)c2)CCO1 (centres unmarked) [Example 75, N-{[4-(3,4-dichlorobenzyl)morpholin-2-yl]methyl}-N′-(2,4-difluorobenzyl)urea]
O=C(NCCN1CCNC1=O)NCC1CN(Cc2ccc(Cl)c(Cl)c2)CCO1 (centres unmarked) [Example 152, N-{[4-(3,4-dichlorobenzyl)morpholin-2-yl]methyl}-N′-[2-(2-oxoimidazolidin-1-yl)ethyl]urea]
O=C(NCCc1cccs1)NCC1CN(Cc2ccc(Cl)c(Cl)c2)CCO1 (centres unmarked) [Example 94, N-{[4-(3,4-dichlorobenzyl)morpholin-2-yl]methyl}-N′-(2-thien-2-ylethyl)urea]
CNS(=O)(=O)CCCNC(=O)NC[C@H]1CN(Cc2ccc(Cl)c(Cl)c2)CCO1 [Example 188, 3-{[({[(2S)-4-(3,4-dichlorobenzyl)morpholin-2-yl]methyl}amino)carbonyl]amino}-N-methylpropane-1-sulfonamide]
N#Cc1cccc(CNC(=O)NCC2CN(Cc3ccc(Cl)c(Cl)c3)CCO2)c1 (centres unmarked) [Example 66, N-(3-cyanobenzyl)-N′-{[4-(3,4-dichlorobenzyl)morpholin-2-yl]methyl}urea]
O=C(NCc1ccccc1F)NCC1CN(Cc2ccc(Cl)c(Cl)c2)CCO1 (centres unmarked) [Example 88, N-{[4-(3,4-dichlorobenzyl)morpholin-2-yl]methyl}-N′-(2-fluorobenzyl)urea]
O=C(NCc1ccc(C(F)(F)F)cc1)NCC1CN(Cc2ccc(Cl)c(Cl)c2)CCO1 (centres unmarked) [Example 70, N-{[4-(3,4-dichlorobenzyl)morpholin-2-yl]methyl}-N′-[4-(trifluoromethyl)benzyl]urea]
NC(=O)c1ccc(CNC(=O)NCC2CN(Cc3ccc(Cl)c(Cl)c3)CCCO2)cc1 (centres unmarked) [Example 184, 4-({[({[4-(3,4-Dichlorobenzyl)-1,4-oxazepan-2-yl]methyl}amino)carbonyl]amino}methyl)benzamide]
COc1cc(CNC(=O)NCC2CN(Cc3ccc(Cl)c(Cl)c3)CCO2)sn1 (centres unmarked) [Example 108, N-{[4-(3,4-dichlorobenzyl)morpholin-2-yl]methyl}-N′-[(3-methoxyisothiazol-5-yl)methyl]urea]
CS(=O)(=O)N1CCN(C(=O)NCC2CN(Cc3ccc(Cl)c(Cl)c3)CCO2)CC1 (centres unmarked) [Example 176, N-{[4-(3,4-dichlorobenzyl)morpholin-2-yl]methyl}-4-(methylsulfonyl)piperazine-1-carboxamide]
CNC(=O)CCCNC(=O)NC[C@H]1CN(Cc2ccc(Cl)c(Cl)c2)CCO1 [Example 187, 4-{[({[(2S)-4-(3,4-dichlorobenzyl)morpholin-2-yl]methyl}amino)carbonyl]amino}-N-methylbutanamide]
O=C(NCc1ccccc1)NCC1CN(Cc2ccc(Cl)c(Cl)c2)CCO1 (centres unmarked) [Example 1, N-Benzyl-N′-{[4-(3,4-dichlorobenzyl)morpholin-2-yl]methyl}urea]
O=C(NCc1ccc(OC(F)(F)F)cc1)NCC1CN(Cc2ccc(Cl)c(Cl)c2)CCO1 (centres unmarked) [Example 72, N-{[4-(3,4-dichlorobenzyl)morpholin-2-yl]methyl}-N′-[4-(trifluoromethoxy)benzyl]urea]
O=C(NCc1ccc(-c2csnn2)cc1)NCC1CN(Cc2ccc(Cl)c(Cl)c2)CCO1 (centres unmarked) [Example 71, N-{[4-(3,4-dichlorobenzyl)morpholin-2-yl]methyl}-N′-(4-(1,2,3-thiadiazol-4-yl)benzyl]urea]
CN(C)C(=O)c1ccc(CNC(=O)NCC2CN(Cc3ccc(Cl)c(Cl)c3)CCO2)cc1 (centres unmarked) [Example 132, 4-({[({[4-(3,4-dichlorobenzyl)morpholin-2-yl]methyl}amino)carbonyl]amino}methyl)-N,N-dimethylbenzamide]
O=C(NCC1CN(Cc2ccc(Cl)c(Cl)c2)CCO1)N1CCN(C(=O)c2ccco2)CC1 (centres unmarked) [Example 159]
